Measurements taken from EP2385124A2.
No constants are given. Whether binding was seen depends on the method and setting. Binding calls can cover weak binding; strength is not graded here.

Target: GST-DLG1 PDZ domains 1-2 fusion protein (human)
Assay: A/G plate assay (TABLE 2)

Binder	binding
KKGTYLTDETHREVKFTSL (biotin at the amino-terminus) [CD46 (Form 1) C-terminal PL peptide AA10L]	binds
TSGTGHNQTRALRASESGI (biotin at the amino-terminus) [CD97 C-terminal PL peptide AA14L]	binds
KDSRPSFVGSSSGHTSTTL (biotin at the amino-terminus) [CDW128B (IL8RB) C-terminal PL peptide AA29.2L]	binds
TREDIYVNYPTFSRRPKTRV (biotin at the amino-terminus) [DNAM-1 C-terminal PL peptide AA22L]	binds
VTSPNKHLGLVTPHKTELV (biotin at the amino-terminus) [CD83 C-terminal PL peptide AA47L]	binds
ISKATPALPTVSISSSAEV (biotin at the amino-terminus) [Clasp-1 C-terminal PL peptide AA1L]	binds
CAISGTSSDRGYGSPRYAEV (biotin at the amino-terminus) [Clasp-4 C-terminal PL peptide AA3L]	binds
ARHRVTSYTSSSVNVSSNL (biotin at the amino-terminus) [CDW128A (IL8RA) C-terminal PL peptide AA29.1L]	binds
SVFSIPTLWSPWPPSSSSQL (biotin at the amino-terminus) [CD3n C-terminal PL peptide AA4L]	binds
QATSRNGHSARQHVVADTEL (biotin at the amino-terminus) [CD34 C-terminal PL peptide AA7L]	binds

More lines, now with the values ahead:

binding	Binder
binds	QGDPALQDAGDSSRKEYFI (biotin at the amino-terminus) [Glycophorin C C-terminal PL peptide AA37L]
binds	ARKANMKGSYSLVEAQKSKV (biotin at the amino-terminus) [VCAM1 C-terminal PL peptide AA17L]
binds	AWDDSARAAGGQGLHVTAL (biotin at the amino-terminus) [LPAP C-terminal PL peptide AA30L]
binds	TTNNNPNSAVNIKKIFTDV (biotin at the amino-terminus) [KV1.3 C-terminal PL peptide AA33L]
